{
  "sequences": {"note": "By UniProt entry, the sequences of proteins in these tests, tags left out. Residues count along the entry.", "UniProt P00748, 20-615": "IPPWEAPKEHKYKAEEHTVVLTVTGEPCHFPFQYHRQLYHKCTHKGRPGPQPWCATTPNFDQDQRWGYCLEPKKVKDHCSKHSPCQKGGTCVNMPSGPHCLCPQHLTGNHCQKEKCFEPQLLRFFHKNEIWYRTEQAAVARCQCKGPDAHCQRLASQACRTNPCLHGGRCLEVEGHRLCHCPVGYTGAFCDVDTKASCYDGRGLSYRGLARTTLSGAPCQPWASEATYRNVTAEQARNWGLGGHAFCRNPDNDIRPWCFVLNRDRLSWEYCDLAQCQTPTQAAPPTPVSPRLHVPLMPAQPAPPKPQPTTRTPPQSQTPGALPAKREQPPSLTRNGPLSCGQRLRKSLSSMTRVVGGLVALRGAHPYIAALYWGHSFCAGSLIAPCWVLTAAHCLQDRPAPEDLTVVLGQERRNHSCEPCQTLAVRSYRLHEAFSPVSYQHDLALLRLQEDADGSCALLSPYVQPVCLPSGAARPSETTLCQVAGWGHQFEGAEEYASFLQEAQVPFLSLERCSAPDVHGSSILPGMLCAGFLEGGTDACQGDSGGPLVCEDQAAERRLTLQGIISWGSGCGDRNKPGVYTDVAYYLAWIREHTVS"},
  "source": "patent US20110281938",
  "key": {"[1]": {"target": "TFPI (tissue factor pathway inhibitor, full-length) (Homo sapiens) (UniProt P10646)", "assay": "competition with a labelled probe", "settings": "2'-OMe A/G/U and mC18, other C 2'-deoxy, 3' idT; fails binding-competition criterion; purified recombinant protein; variant of ARC17480"}, "[2]": {"target": "TFPI (plasma, hemophilia A pool) (Homo sapiens) (UniProt P10646)", "assay": "activity assay", "settings": "2'-OMe except dC9, dC14, dC16, dC25; 5' 40 kDa PEG via amine linker; no idT; CAT thrombin generation in hemophilia A plasma, similar to ARC19499; protein in an extract; synthetic backbone; dose not given here"}, "Factor XII": {"target": "Factor XII (UniProt P00748)", "assay": "filter binding", "settings": "2'-OMe A/G/U, 2'-deoxy C, 3' idT; some binding at high protein, eliminated by 0.1 mg/mL tRNA, likely non-specific; purified native protein; label: radiolabel"}, "TFPI-His": {"target": "TFPI-His (UniProt P10646)", "assay": "filter binding", "settings": "2'-OMe A/G/U, 2'-deoxy C, 3' idT; reduced vs full-length TFPI; purified recombinant protein; label: radiolabel"}, "[3]": {"target": "TFPI (tissue factor pathway inhibitor, full-length) (Homo sapiens) (UniProt P10646)", "assay": "filter binding", "settings": "2'-OMe A/G/U, 2'-deoxy C, 3' idT, purified recombinant protein, label: radiolabel"}, "[4]": {"target": "T1, TFPI K3-C-terminal domain (UniProt P10646)", "T1 sequence": "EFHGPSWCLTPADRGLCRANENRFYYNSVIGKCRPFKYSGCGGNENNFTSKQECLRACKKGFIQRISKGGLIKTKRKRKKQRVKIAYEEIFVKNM", "assay": "filter binding", "settings": "2'-OMe A/G/U, 2'-deoxy C, 3' idT; very weak, only at higher protein concentrations; purified recombinant protein; protein details: N-terminal 6-His, E. coli expressed; label: radiolabel"}, "TFPI C-terminal peptide": {"target": "T2, TFPI C-terminal peptide (UniProt P10646)", "T2 sequence": "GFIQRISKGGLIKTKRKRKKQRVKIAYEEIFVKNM", "assay": "filter binding", "settings": "2'-OMe A/G/U, 2'-deoxy C, 3' idT; weak at high peptide (up to 10 uM), neutravidin capture; synthetic protein; protein details: N-terminal biotin, synthetic peptide; label: radiolabel"}, "[5]": {"target": "TFPI (tissue factor pathway inhibitor, full-length) (Homo sapiens) (UniProt P10646)", "assay": "inhibition of the protein", "settings": "5' 40 kDa PEG via hexylamine, 2'-OMe A/G/U, 2'-deoxy C, 3' idT, HBS 2 mM CaCl2, 37 C, purified recombinant protein, variant of ARC17480"}, "[6]": {"target": "TFPI (recombinant, Novo Nordisk cell line) (Homo sapiens) (UniProt P10646)", "assay": "inhibition of the protein", "settings": "5' 40 kDa PEG via hexylamine, 2'-OMe A/G/U, 2'-deoxy C, 3' idT; apparent binding constant (called Ki in p826) from FXa protection, 3 mM CaCl2; purified recombinant protein; protein details: purified from Novo Nordisk cell line; variant of ARC17480"}, "[7]": {"target": "TFPI (tissue factor pathway inhibitor, full-length) (Homo sapiens) (UniProt P10646)", "assay": "ELONA", "settings": "5' 40 kDa PEG via hexylamine, 2'-OMe A/G/U, 2'-deoxy C, 3' idT; plate-immobilised TFPI, anti-PEG detection, DPBS 0.1% BSA, RT; purified recombinant protein; variant of ARC17480"}},
  "note": "For some of these results: No signal at the amounts used counts as a negative. For some of these results: A weaker result is weaker than the reference pair of the same experiment. For some of these results: Tags and fusion partners may be left off the protein sequences shown. For some of these results: For at least one entry, the source does not settle the construct or the ends of the probe. For some of these results: The direction of at least one scale is not stated here.",
  "data": [
    {"sequence": "GGAAUAUACUUGGCUCGCUAGGUGCGUAUAUA [ARC33166]", "values": [
      {"measurement": "binding signal (fold IC50 of ARC17480)", "setting": "[1]", "result": "> 5"}
    ]},
    {"sequence": "GGAAUAUACUUGGCUCGUUAGGUGCGUAU [ARC21389]", "values": [
      {"measurement": "functional effect of the aptamer", "setting": "[2]", "result": "active"}
    ]},
    {"sequence": "GGAAUAUACUUGGCUCGUUAGGUGCGUAUA [ARC21387]", "values": [
      {"measurement": "functional effect of the aptamer", "setting": "[2]", "result": "active"}
    ]},
    {"sequence": "GGAAUAUACUUGGCUCGUUAGGUGCGUAUAU [ARC21385]", "values": [
      {"measurement": "functional effect of the aptamer", "setting": "[2]", "result": "active"}
    ]},
    {"sequence": "GGAAUAUACUUGGCUCGUUAGGUGCGUAUAUA [ARC17480]", "values": [
      {"measurement": "binding result", "setting": "Factor XII", "result": "binds more weakly"},
      {"measurement": "binding result", "setting": "TFPI-His", "result": "binds more weakly"},
      {"measurement": "binding result", "setting": "[3]; 0.1 mg/mL unfractionated heparin completely abolished binding", "result": "no binding"},
      {"measurement": "Kd", "setting": "[3]; mean of mono- (4.0±1.5) and biphasic (1.7±0.7) fits, no tRNA", "result": 2.9, "unit": "nM"},
      {"measurement": "Kd", "setting": "[3]; with 0.1 mg/mL tRNA", "result": 42, "unit": "nM"},
      {"measurement": "binding result", "setting": "[4]", "result": "binds more weakly"},
      {"measurement": "binding result", "setting": "TFPI C-terminal peptide", "result": "binds more weakly"}
    ]},
    {"sequence": "GGAAUAUACUUGGCUCGUUAGGUGCGUAUAUA [ARC19499 (BAX499)]", "values": [
      {"measurement": "Kd", "setting": "[5]; apparent KD from FXa protection", "result": 1.8, "unit": "nM"},
      {"measurement": "Kd", "setting": "[5]; apparent KD from TF:FVIIa protection", "result": 1.2, "unit": "nM"},
      {"measurement": "Kd", "setting": "[6]", "result": 50, "unit": "nM"},
      {"measurement": "Kd", "setting": "[7]", "result": 30, "unit": "nM"}
    ]},
    {"sequence": "GGAAUAUACUUGGCUCGUUAGGUGCGUAUAUA [ARC21383]", "values": [
      {"measurement": "functional effect of the aptamer", "setting": "[2]", "result": "active"}
    ]}
  ]
}
